Literature values, collected in paper PMC4641600, “Novel Activities of Select NSAID R-Enantiomers against Rac1 and Cdc42 GTPases” (PLoS ONE, 2015).

Conditions: typical oral dosing (S-Naproxen 500 mg; 6-MNA 750-20000 mg of nabumetone); ref Roche Investigator’s brochure, 9, 10, 17-19, 21, 23; cited from earlier work

COc1ccc2cc([C@H](C)C(=O)O)ccc2c1 [S-naproxen]
Serum Cmax: 97.4 µg/mL
